Laboratory results: PubChem BioAssay AID1259254 (NCATS, 2017)
The deposit covers about 59,000 reagents; shown is a random part of them. In the full data, about 1,550 (2.6%) are marked active. 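G2 share is only a proxy for re-replication; each gene was hit by three separate siRNAs, and active genes were retested.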 Raw values vary from plate to plate and are shown uncorrected. Reagents against one gene are numbered here. Not given: the amount of reagent.

- Screen: 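Finding genes that stop cells copying their DNA twice in one cycle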 (primary screen)
- System: human HCT116 colorectal cancer cells
- Knock-down reagent: single siRNA against human genes
- Timing: 3 days
- Detection: 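Imaged Hoechst DNA stain sorts each cell into a cycle phase by DNA amount; per plate, G2 fraction set to 0% for non-targeting and 100% for GMNN siRNA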
- Direction: G2 robust z-score and G2 cells, % of GMNN control: higher = more G2 cells, more excess DNA replication; raw share of cells in G2: higher = larger share of cells with G2 DNA content
- Active means: 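An siRNA counts as active if its G2 robust z-score lies at least 5 MADs above the screen median; here such calls match roughly 38% of GMNN control or more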

| gene | reagent no. | G2 robust z-score | G2 cells, % of GMNN control | raw share of cells in G2 (%) | Call |
| --- | --- | --- | --- | --- | --- |
| MIR1915HG | 1 | 0.428 | 5.98 | 7.27 | inactive |
| MIR1915HG | 2 | -0.661 | -1.69 | 3.2 | inactive |
| MIR1915HG | 3 | 3.23 | 25.7 | 13.7 | inactive |
| OR4S2 | 1 | -0.902 | -3.38 | 2.35 | inactive |
| OR4S2 | 2 | 2 | 17.1 | 8.98 | inactive |
| OR4S2 | 3 | -0.344 | 0.548 | 3.37 | inactive |
| HLA-DOA | 1 | -0.76 | -2.38 | 4.19 | inactive |
| HLA-DOA | 2 | -0.0993 | 2.27 | 4.92 | inactive |
| HLA-DOA | 3 | -1.06 | -4.47 | 1.77 | inactive |
| SACK1D | 1 | 0.127 | 3.86 | 3.58 | inactive |
| SACK1D | 2 | 1.43 | 13 | 8.44 | inactive |
| SACK1D | 3 | 0.93 | 9.51 | 6.28 | inactive |
| TDRKH | 1 | 1.97 | 16.8 | 13.1 | inactive |
| TDRKH | 2 | 3.64 | 28.6 | 18.1 | inactive |
| TDRKH | 3 | -1.08 | -4.66 | 2.33 | inactive |
| PECR | 1 | -1.49 | -7.53 | 3.13 | inactive |
| PECR | 2 | 4.89 | 37.4 | 17.8 | inactive |
| PECR | 3 | -0.75 | -2.31 | 3.37 | inactive |
| PF4V1 | 1 | 0.963 | 9.74 | 9.12 | inactive |
| PF4V1 | 2 | 1.3 | 12.1 | 9 | inactive |
| PF4V1 | 3 | -0.558 | -0.961 | 3.01 | inactive |
| DZIP1 | 1 | -0.0269 | 2.78 | 7.48 | inactive |
| DZIP1 | 2 | 0.37 | 5.57 | 6.02 | inactive |
| DZIP1 | 3 | -0.32 | 0.714 | 4.11 | inactive |
| FYCO1 | 1 | -0.298 | 0.871 | 4.96 | inactive |
| FYCO1 | 2 | 1.38 | 12.7 | 10.3 | inactive |
| FYCO1 | 3 | 0.799 | 8.59 | 4.97 | inactive |
| ASPH | 1 | 9.01 | 66.4 | 27.3 | active |
| ASPH | 2 | 0.158 | 4.08 | 6.53 | inactive |
| ASPH | 3 | -0.263 | 1.11 | 4.41 | inactive |
| SLITRK6 | 1 | 1.79 | 15.6 | 10.5 | inactive |
| SLITRK6 | 2 | -0.364 | 0.408 | 4.34 | inactive |
| SLITRK6 | 3 | 0.707 | 7.94 | 8.74 | inactive |
| FDPS | 1 | -0.755 | -2.34 | 4.39 | inactive |
| FDPS | 2 | -0.323 | 0.695 | 5.53 | inactive |
| FDPS | 3 | -0.961 | -3.8 | 2.31 | inactive |
| UPF3A | 1 | -0.304 | 0.828 | 2.92 | inactive |
| UPF3A | 2 | -0.319 | 0.721 | 4.89 | inactive |
| UPF3A | 3 | 0.529 | 6.69 | 7.61 | inactive |
| NGF | 1 | -0.686 | -1.86 | 4.64 | inactive |
| NGF | 2 | -0.948 | -3.7 | 4 | inactive |
| NGF | 3 | -0.463 | -0.288 | 3.1 | inactive |
| DRC12 | 1 | 0.974 | 9.82 | 6.84 | inactive |
| DRC12 | 2 | 0.543 | 6.78 | 5.33 | inactive |
| DRC12 | 3 | 1.76 | 15.3 | 9.24 | inactive |
| CPT1A | 1 | -0.436 | -0.0997 | 4.93 | inactive |
| CPT1A | 2 | -0.266 | 1.1 | 5.39 | inactive |
| CPT1A | 3 | 0.23 | 4.58 | 5.67 | inactive |
| PIKFYVE | 1 | -0.555 | -0.935 | 2.77 | inactive |
| PIKFYVE | 2 | -0.653 | -1.63 | 2.6 | inactive |
| PIKFYVE | 3 | 0.473 | 6.3 | 5.73 | inactive |
| PDCD11 | 1 | 0.991 | 9.94 | 10.4 | inactive |
| PDCD11 | 2 | 2.24 | 18.8 | 10.3 | inactive |
| PDCD11 | 3 | 0.554 | 6.87 | 6.45 | inactive |
| RAB13 | 1 | 3.14 | 25.1 | 13.6 | inactive |
| RAB13 | 2 | -0.524 | -0.718 | 4.41 | inactive |
| RAB13 | 3 | -0.354 | 0.477 | 4.3 | inactive |
| RNF146 | 1 | -0.251 | 1.2 | 4.51 | inactive |
| RNF146 | 2 | 1.45 | 13.2 | 7.36 | inactive |
| RNF146 | 3 | -0.321 | 0.711 | 2.62 | inactive |
| CD276 | 1 | 1.1 | 10.7 | 5.3 | inactive |
| CD276 | 2 | -1.04 | -4.34 | 2.64 | inactive |
| CD276 | 3 | -0.604 | -1.28 | 3.74 | inactive |
| HEATR4 | 1 | -0.168 | 1.78 | 4.46 | inactive |
| HEATR4 | 2 | -0.928 | -3.56 | 2.1 | inactive |
| HEATR4 | 3 | 1.96 | 16.7 | 11.7 | inactive |
| KRT16 | 1 | 2.58 | 21.1 | 12.7 | inactive |
| KRT16 | 2 | 0.225 | 4.55 | 7.42 | inactive |
| KRT16 | 3 | -0.0806 | 2.4 | 5.08 | inactive |
| CHCHD4 | 1 | 0.324 | 5.24 | 4.48 | inactive |
| CHCHD4 | 2 | 3.41 | 26.9 | 14.3 | inactive |
| CHCHD4 | 3 | -0.00271 | 2.95 | 4.04 | inactive |
| ANXA1 | 1 | 0.31 | 5.15 | 5.91 | inactive |
| ANXA1 | 2 | 0.0579 | 3.37 | 6.27 | inactive |
| ANXA1 | 3 | -0.172 | 1.76 | 5.32 | inactive |
| DHCR24 | 1 | -0.732 | -2.19 | 3.34 | inactive |
| DHCR24 | 2 | -1.4 | -6.88 | 2.48 | inactive |
| DHCR24 | 3 | 0.0824 | 3.55 | 6.23 | inactive |
| CDCA5 | 1 | 5.6 | 42.4 | 21.1 | active |
| CDCA5 | 2 | 11.3 | 82.2 | 27.8 | active |
| CDCA5 | 3 | 1.78 | 15.5 | 6.35 | inactive |
| ACTN2 | 1 | 0.079 | 3.52 | 5.3 | inactive |
| ACTN2 | 2 | 0.348 | 5.42 | 6.56 | inactive |
| ACTN2 | 3 | -0.825 | -2.84 | 4.06 | inactive |
| OVOS1BP | 1 | -0.0154 | 2.86 | 4.24 | inactive |
| OVOS1BP | 2 | -0.701 | -1.97 | 2.34 | inactive |
| OVOS1BP | 3 | 1.54 | 13.8 | 9.22 | inactive |

Records listed so far whose target name begins with U or u:
| gene | reagent no. | G2 robust z-score | G2 cells, % of GMNN control | raw share of cells in G2 (%) | Call |
| --- | --- | --- | --- | --- | --- |
| UPF3A | 1 | -0.304 | 0.828 | 2.92 | inactive |
| UPF3A | 2 | -0.319 | 0.721 | 4.89 | inactive |
| UPF3A | 3 | 0.529 | 6.69 | 7.61 | inactive |
